Laboratory results: paper doi:10.1101/2020.07.11.196790
No constants are given. Whether binding was seen depends on the method and setting. Binding seen in cells or lysates may run through a third protein. Some entries that bind do so weakly or less than the wild type.

Amino acid sequences for entries named in this document (tags omitted).
UniProt Q86WV6: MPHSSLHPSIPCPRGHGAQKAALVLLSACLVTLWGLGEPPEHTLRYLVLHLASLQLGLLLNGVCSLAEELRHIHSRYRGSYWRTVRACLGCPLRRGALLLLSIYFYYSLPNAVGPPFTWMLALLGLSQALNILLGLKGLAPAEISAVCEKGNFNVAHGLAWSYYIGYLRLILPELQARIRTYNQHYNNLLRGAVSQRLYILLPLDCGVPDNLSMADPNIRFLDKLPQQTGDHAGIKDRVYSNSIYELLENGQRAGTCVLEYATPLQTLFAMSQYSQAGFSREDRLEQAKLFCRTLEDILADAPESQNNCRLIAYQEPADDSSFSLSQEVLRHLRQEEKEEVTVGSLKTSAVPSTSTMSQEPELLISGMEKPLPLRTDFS
UniProt P78527: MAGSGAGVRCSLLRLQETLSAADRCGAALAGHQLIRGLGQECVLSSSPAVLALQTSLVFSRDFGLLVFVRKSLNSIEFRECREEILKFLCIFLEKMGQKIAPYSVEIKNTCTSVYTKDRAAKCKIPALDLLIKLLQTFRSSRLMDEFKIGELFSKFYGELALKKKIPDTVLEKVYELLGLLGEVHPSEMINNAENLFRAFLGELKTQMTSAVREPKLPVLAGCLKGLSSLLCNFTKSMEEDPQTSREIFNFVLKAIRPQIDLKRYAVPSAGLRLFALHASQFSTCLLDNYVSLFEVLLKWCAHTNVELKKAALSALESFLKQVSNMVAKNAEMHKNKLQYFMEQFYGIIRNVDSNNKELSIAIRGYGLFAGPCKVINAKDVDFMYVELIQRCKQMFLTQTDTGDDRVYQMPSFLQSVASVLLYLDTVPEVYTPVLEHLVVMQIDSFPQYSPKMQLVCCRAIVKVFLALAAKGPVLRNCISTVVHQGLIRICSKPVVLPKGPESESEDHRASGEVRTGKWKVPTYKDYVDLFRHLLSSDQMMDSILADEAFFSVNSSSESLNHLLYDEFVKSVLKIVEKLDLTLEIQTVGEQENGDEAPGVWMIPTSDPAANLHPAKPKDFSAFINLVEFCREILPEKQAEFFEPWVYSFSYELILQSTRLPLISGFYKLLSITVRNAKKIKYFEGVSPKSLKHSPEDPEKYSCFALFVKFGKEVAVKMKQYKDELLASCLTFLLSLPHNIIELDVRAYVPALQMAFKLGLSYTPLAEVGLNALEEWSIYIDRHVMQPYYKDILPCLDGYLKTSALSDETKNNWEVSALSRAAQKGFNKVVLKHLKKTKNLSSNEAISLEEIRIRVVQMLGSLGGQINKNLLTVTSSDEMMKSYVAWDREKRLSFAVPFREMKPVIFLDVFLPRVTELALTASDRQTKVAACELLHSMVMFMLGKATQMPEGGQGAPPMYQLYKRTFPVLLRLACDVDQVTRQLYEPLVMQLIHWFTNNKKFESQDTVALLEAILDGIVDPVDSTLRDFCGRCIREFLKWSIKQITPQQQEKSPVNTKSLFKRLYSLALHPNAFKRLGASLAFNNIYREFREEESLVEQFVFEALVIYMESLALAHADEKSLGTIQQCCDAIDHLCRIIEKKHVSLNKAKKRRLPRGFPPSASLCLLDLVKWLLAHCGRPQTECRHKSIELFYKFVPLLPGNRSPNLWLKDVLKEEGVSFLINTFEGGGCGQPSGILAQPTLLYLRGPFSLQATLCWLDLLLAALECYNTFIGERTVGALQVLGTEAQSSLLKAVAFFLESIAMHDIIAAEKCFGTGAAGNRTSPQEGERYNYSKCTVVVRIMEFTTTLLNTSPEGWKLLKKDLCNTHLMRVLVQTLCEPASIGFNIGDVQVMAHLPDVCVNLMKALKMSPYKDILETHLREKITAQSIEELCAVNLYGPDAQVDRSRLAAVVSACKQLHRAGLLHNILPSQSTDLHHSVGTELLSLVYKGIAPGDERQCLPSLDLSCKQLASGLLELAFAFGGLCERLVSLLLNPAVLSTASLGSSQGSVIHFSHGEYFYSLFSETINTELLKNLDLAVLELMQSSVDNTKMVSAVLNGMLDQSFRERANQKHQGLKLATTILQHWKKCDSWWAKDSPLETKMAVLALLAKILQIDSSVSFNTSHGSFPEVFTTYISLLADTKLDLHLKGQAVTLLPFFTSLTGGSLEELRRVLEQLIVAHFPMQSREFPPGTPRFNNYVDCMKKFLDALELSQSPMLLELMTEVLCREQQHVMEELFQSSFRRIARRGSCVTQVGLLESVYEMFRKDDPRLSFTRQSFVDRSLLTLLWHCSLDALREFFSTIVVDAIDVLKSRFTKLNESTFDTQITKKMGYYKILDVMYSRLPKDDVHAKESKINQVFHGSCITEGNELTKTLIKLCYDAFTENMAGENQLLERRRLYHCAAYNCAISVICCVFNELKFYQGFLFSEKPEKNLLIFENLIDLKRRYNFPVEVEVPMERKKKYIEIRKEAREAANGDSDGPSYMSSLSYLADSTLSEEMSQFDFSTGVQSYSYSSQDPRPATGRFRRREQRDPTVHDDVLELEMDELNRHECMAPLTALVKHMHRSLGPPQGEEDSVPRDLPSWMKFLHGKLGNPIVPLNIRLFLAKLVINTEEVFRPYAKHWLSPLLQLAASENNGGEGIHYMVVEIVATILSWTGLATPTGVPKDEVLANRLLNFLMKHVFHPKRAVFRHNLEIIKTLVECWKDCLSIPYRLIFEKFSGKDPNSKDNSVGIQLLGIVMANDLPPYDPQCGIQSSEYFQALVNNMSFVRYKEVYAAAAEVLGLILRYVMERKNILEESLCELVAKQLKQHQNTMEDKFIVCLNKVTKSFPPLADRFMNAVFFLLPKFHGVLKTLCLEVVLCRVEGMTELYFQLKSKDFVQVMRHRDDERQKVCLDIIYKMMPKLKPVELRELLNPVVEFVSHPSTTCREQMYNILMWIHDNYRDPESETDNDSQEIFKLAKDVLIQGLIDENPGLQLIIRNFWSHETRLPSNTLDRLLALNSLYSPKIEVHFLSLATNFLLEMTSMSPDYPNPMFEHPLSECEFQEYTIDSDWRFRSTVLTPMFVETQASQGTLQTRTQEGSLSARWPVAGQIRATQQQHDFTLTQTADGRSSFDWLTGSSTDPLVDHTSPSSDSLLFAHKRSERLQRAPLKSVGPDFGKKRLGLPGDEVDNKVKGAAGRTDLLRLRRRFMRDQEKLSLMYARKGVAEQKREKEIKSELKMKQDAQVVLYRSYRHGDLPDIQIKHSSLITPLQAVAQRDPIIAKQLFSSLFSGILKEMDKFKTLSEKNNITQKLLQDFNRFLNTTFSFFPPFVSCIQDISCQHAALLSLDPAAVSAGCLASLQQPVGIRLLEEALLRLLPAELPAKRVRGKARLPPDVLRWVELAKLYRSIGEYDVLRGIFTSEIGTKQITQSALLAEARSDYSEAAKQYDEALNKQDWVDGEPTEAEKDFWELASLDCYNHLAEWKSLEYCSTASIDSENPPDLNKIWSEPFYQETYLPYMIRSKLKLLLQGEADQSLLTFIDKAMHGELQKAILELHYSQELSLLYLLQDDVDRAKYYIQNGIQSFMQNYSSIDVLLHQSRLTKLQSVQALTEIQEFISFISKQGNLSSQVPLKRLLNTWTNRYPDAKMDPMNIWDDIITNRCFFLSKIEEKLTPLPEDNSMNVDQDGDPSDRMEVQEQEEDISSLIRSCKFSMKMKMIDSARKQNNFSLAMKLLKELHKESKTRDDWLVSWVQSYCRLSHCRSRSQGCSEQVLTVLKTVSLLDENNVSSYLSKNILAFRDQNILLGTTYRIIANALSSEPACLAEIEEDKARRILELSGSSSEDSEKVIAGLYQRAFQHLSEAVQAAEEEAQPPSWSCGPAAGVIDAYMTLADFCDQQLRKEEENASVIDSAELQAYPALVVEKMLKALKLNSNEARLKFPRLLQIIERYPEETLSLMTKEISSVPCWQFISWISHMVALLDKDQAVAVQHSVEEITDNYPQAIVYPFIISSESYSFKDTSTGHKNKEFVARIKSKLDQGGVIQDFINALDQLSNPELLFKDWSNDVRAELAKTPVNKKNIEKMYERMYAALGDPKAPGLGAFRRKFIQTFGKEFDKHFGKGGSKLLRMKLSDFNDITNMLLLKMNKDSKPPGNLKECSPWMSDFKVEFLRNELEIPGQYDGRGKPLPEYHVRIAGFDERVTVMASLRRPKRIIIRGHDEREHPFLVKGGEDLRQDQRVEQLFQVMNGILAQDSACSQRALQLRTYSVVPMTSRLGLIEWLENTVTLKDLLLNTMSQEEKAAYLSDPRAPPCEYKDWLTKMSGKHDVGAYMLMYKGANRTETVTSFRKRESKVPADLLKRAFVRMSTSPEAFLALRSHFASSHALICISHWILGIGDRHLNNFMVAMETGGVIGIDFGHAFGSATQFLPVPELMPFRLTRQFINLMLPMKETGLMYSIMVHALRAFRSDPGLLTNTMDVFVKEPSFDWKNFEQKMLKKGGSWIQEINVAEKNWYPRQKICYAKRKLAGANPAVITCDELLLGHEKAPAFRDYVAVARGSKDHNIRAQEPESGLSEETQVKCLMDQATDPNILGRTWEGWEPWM
UniProt P12956: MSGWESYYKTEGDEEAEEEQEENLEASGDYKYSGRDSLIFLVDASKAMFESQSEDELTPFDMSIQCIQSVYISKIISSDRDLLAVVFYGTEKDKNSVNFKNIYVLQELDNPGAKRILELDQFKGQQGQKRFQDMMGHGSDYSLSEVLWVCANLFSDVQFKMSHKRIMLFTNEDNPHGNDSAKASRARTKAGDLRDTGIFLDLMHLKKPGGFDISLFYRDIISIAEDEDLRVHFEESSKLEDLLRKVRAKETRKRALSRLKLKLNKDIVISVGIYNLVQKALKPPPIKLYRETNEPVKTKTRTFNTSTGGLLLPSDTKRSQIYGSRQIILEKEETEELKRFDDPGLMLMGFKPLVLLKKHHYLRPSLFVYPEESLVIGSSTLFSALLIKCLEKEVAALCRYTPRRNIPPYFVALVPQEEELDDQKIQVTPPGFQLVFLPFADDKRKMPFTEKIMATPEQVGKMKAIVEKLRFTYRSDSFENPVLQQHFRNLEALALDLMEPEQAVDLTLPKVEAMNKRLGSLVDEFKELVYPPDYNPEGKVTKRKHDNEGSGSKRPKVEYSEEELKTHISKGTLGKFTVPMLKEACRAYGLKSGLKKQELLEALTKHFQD
UniProt P13010: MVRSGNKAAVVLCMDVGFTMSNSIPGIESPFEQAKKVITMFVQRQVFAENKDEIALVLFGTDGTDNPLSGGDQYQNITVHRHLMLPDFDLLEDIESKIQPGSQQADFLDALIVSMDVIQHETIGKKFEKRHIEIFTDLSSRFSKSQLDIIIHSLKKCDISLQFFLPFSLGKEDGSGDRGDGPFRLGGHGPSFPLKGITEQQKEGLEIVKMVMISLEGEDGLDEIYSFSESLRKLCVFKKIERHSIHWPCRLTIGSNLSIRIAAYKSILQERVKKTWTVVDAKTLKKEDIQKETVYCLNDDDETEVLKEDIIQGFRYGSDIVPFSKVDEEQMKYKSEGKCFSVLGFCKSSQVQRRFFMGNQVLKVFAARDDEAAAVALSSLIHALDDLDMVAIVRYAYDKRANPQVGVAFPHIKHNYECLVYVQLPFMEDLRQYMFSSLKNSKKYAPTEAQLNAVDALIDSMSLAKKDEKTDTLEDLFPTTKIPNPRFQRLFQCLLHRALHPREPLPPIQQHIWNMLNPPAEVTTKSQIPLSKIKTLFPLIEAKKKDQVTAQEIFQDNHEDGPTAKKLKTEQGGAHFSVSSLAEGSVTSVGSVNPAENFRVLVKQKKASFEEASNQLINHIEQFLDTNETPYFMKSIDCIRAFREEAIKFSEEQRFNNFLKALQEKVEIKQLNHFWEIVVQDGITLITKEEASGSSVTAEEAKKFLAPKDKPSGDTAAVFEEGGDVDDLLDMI

Legend:
Assay in all cases: co-IP
[1] = molecular target: untagged STING ectopically expressed in MCF7 cells (human) (UniProt Q86WV6)
[2] = molecular target: endogenous STING (human (endogenous in HBCx-3 and HEK293)) (UniProt Q86WV6)
[3] = molecular target: DNA-PK catalytic subunit (human (endogenous in MCF7, HBCx-3 and HEK293)) (UniProt P78527)
[4] = molecular target: Flag-STING-HA (Stimulator of Interferon Genes) (human) (UniProt Q86WV6)

Substance | binding [1] | binding [2] | binding [3] | binding [4]
Ku70 (from UniProt P12956 1-609) | binds | binds |  | 
untagged STING ectopically expressed in MCF7 cells (from UniProt Q86WV6 1-379) |  |  | binds | 
DNA-PK catalytic subunit (from UniProt P78527 1-4128) | binds | binds |  | binds

Further lines, results first:

binding [1] | binding [2] | binding [3] | binding [4] | Substance
 |  | binds |  | endogenous STING (from UniProt Q86WV6 1-379)
binds | binds |  |  | Ku80 (from UniProt P13010 1-732)
